This note sets out measurements from doi:10.1101/2024.12.09.627393.

The chains behind the UniProt entries cited, without tags or fusion partners. Where a name states a change or a piece, a line headed by the entry shows the natural chain unless it says otherwise. Residues count along the entry.
UniProt Q9BXF3, residues 424-538: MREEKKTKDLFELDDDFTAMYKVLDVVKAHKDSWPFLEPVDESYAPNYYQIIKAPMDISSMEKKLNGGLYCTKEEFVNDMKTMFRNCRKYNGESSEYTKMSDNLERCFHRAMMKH

This test addresses CECR2 bromodomain (CECR2-BRD), wild type, GST tag cleaved (human) (UniProt Q9BXF3). The experiment in a line: AUC; sedimentation velocity, 35,000 rpm, 15 hours, 5°C; CECR2-BRD 5.2–25.1 μM alone (apo) and mixed with acetylated H3 and H4 peptides at 1:0.5 to 1:2; 150 mM NaCl, 20 mM NaPO4 pH 7.0, 1 mM TCEP; both purified.

No constants are given. Whether binding was seen depends on the method and setting.

Regarding “CECR2 bromodomain (CECR2-BRD), wild type, GST tag cleaved (from UniProt Q9BXF3-1 424-538) (domain or fragment)”, the binding result was “no binding (tested: 5.2–25.1 μM)”.
